Experimental data published in EP0297435A2, “Aminopropanol derivatives of 3-(3'-hydroxyphenyl)-1-propanone, process for their preparation and medicines containing these compounds” (Helopharm W. Petrik GmbH & Co.KG., priority 1987, dated 1989).

Experiment: Acute toxicity LD50 in rats, i.v.
Details: rat, in vivo, iv; Ratte (i.v.); read-out: LD₅₀
Description: Die hohe antiarrhythmische Wirksamkeit ist nicht begleitet von einer signifikanten Toxizitätssteigerung im Vergleich zu Propafenon. Dies ergibt sich aus einem Vergleich der LD₅₀-Werte bei Ratten und Mäusen, die in Tabelle II zusammengefaßt sind.

With `CCCNCC(O)COc1ccccc1C(=O)CCc1ccccc1` (stereo not shown) [A, Propafenon, reference compound] the LD50 was 17 mg/kg.
